Experimental findings from the supplement of paper PMC12889115 are described below.

Molecules are shown by their SMILES. Some of the results follow. These are raw signals, not scaled to a control.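 In the initial screen, polymyxin B was used at a concentration that permeabilizes Salmonella's outer membrane but not its inner membrane. Maximum growth was set by DMSO wells with or without polymyxin B. Since plates varied, data were ranked per plate, and compounds giving the lowest OD600 advanced as hits.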

The assay deals with Salmonella enterica serovar Typhimurium SL1344. The experiment in a line: bacterial growth OD600 after 18 h with compound and polymyxin B; higher = more bacterial growth (less inhibition). The settings on record: 50 µM, Mueller-Hinton broth.

For `COc1ccc(CCNC2CCN(c3nc(C)c4ccc(S(C)(=O)=O)cc4n3)CC2)cc1OC`, where the note is “polymyxin B 0.75 µg/mL”, the “bacterial growth OD600” value is 0.8.
Consider `CC(C)/C=C/CN1CCOc2ccc(C(O)Cc3ccccc3)cc2C1` (centres undefined), for which the “bacterial growth OD600” value (polymyxin B 0.75 µg/mL) was determined as 0.135.
As to `COc1ccc(CC2(CCC(=O)NCc3nc4cc(C(F)(F)F)ccc4n3C)CCC(=O)N2)cc1` (centres undefined), the “bacterial growth OD600” value (polymyxin B 0.75 µg/mL) was 0.82.
Turning to `COc1ccc(S(=O)(=O)NCC2CCCN(Cc3cccc(C)n3)C2)cc1` (centres undefined), for the setting “polymyxin B 1 µg/mL”, the “bacterial growth OD600” value worked out at 0.908.
With `CC(C)N(Cc1cn(C)nc1-c1ccc2c(c1)OCCO2)Cc1nccn1C`, the “bacterial growth OD600” value (polymyxin B 1 µg/mL) was 0.624.
Take `O=C(CCn1cnc2ccccc21)NC1CCCN(C2Cc3ccccc3C2)C1` (centres undefined): the “bacterial growth OD600” value (polymyxin B 1 µg/mL) turned out to be 0.992.
Regarding `CCN(CC1CCCN(CCc2cccc(F)c2)C1)C(C)=O` (centres undefined), for the setting “polymyxin B 1 µg/mL”, the “bacterial growth OD600” value stood at 0.925.
As to `COC(=O)c1cc(CNC(=O)Cc2ccccc2C)cc(NC(=O)c2ccco2)c1`, the “bacterial growth OD600” value (polymyxin B 0.75 µg/mL) came to 0.741.
`COCc1c(C(=O)NCCN2CCOCC2)cnn1-c1ncc2c(n1)-c1ccccc1CCC2`: under “polymyxin B 0.75 µg/mL”, the “bacterial growth OD600” value was determined as 0.841.
